Results as given in PMC5127643.
No constants are given. Whether binding was seen depends on the method and setting. Binding seen in cells or lysates may run through a third protein. Some binding calls cover weakened binding; strength is not graded here.

Amino acid sequences for entries named in this document (tags omitted).
UniProt P10961: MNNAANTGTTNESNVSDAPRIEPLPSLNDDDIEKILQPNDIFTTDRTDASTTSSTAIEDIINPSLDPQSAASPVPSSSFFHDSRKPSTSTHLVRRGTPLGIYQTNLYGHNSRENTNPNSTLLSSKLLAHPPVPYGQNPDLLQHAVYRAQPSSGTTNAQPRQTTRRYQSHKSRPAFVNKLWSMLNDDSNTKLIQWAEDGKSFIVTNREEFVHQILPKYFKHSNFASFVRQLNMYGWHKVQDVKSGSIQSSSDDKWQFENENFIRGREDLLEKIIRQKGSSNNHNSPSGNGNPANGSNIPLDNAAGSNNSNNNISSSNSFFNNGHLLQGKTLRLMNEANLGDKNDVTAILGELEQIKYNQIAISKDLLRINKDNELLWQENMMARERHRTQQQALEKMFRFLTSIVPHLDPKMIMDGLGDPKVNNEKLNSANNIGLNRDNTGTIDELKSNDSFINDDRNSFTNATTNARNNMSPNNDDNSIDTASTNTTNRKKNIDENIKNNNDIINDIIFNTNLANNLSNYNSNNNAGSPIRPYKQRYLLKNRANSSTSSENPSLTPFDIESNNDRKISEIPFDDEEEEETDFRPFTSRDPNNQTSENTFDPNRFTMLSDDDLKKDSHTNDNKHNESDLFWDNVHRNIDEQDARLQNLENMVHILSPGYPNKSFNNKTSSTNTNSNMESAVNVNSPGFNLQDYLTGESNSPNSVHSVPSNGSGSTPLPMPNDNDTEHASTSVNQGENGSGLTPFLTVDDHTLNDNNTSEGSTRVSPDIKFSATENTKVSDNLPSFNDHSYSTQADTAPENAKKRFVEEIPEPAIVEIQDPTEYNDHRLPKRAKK
UniProt P10591: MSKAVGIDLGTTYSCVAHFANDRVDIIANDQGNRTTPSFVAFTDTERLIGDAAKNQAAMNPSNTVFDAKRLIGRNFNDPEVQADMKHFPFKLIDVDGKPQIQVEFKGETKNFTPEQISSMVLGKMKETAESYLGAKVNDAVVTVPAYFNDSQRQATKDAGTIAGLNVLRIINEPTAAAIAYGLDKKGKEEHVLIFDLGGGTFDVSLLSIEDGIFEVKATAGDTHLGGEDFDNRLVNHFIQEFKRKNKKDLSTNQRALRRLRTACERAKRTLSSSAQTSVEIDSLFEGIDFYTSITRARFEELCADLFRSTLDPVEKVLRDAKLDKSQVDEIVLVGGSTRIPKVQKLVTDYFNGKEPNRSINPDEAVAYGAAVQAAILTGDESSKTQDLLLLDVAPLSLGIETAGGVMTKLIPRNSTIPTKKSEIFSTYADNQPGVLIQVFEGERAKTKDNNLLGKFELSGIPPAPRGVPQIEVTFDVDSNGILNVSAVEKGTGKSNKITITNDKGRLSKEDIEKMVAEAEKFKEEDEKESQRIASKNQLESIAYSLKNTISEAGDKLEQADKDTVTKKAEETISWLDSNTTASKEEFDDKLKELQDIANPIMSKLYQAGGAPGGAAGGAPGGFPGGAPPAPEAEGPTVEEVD

Target: Hsf1-3xFLAG-V5 (S. cerevisiae) (UniProt P10961)
Experiment: co-IP; IP of Hsf1-3xFLAG-V5 from yeast lysate, Western blot with antiserum recognizing Ssa1/2; heat shock time course 25°C to 39°C; wild type and ydj1∆ cells

binding: binds
Substance: Ssa1 (from UniProt P10591 1-642)
